Test results: publication PMC9787417 (Pathogens, 2022)
Results are given in words; binding and its absence hold for the method and conditions named. For part of these data: In cells and extracts the contact can be indirect. Some entries that bind do so weakly or less than the wild type.

Chains of the proteins cited; added tags and fusions are not shown. Residues count along the entry.
UniProt Q93Q17, residues 252-475: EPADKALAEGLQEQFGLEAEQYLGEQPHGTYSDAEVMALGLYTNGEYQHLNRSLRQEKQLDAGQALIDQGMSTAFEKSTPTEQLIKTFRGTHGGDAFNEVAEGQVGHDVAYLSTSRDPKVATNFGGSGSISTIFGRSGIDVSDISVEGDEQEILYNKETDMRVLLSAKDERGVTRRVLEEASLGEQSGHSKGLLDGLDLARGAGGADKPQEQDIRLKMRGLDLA
UniProt Q9I788, residues 235-457: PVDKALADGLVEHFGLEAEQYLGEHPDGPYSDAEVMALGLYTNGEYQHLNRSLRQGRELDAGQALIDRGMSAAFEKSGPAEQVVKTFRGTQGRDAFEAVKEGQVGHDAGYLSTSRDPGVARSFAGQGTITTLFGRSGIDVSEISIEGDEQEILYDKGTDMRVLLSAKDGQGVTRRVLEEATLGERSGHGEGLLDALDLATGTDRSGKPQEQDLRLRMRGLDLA
UniProt P31946, residues 1-239: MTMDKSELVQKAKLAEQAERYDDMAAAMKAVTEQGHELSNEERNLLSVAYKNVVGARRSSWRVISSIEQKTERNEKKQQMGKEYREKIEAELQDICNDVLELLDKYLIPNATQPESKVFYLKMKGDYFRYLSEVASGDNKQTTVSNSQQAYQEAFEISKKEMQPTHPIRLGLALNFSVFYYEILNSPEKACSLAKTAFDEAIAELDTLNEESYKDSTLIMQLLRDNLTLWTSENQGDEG

Experiments:
[1] = target: ART domain of Aeromonas salmonicida exoenzyme T (AexT-ART; residues 252-475) (Aeromonas salmonicida) (UniProt Q93Q17); experiment: pull-down
[2] = target: ART domain of Pseudomonas aeruginosa exoenzyme T (ExoT-ART; residues 235-457) (Pseudomonas aeruginosa) (UniProt Q9I788); experiment: pull-down
[3] = target: ART domain of Aeromonas salmonicida exoenzyme T (AexT-ART; residues 252-475) (Aeromonas salmonicida) (UniProt Q93Q17); experiment: SEC-MALS; both purified
[4] = target: ART domain of Pseudomonas aeruginosa exoenzyme T (ExoT-ART; residues 235-457) (Pseudomonas aeruginosa) (UniProt Q9I788); experiment: SEC-MALS; both purified
[5] = target: ART domain of Aeromonas salmonicida exoenzyme T (AexT-ART; residues 252-475) (Aeromonas salmonicida) (UniProt Q93Q17); experiment: mass photometry; both purified
[6] = target: ART domain of Pseudomonas aeruginosa exoenzyme T (ExoT-ART; residues 235-457) (Pseudomonas aeruginosa) (UniProt Q9I788); experiment: mass photometry; both purified

Measured: binding

human 14-3-3β, un-tagged, co-expressed with the exotoxin ART domains (from UniProt P31946 1-239)
binds: all assays above
